This is an account of results in patent US5648336A (University of Colorado, priority 1994, dated 1997).

Chains of the proteins cited; added tags and fusions are not shown.
UniProt P30411, whole entry: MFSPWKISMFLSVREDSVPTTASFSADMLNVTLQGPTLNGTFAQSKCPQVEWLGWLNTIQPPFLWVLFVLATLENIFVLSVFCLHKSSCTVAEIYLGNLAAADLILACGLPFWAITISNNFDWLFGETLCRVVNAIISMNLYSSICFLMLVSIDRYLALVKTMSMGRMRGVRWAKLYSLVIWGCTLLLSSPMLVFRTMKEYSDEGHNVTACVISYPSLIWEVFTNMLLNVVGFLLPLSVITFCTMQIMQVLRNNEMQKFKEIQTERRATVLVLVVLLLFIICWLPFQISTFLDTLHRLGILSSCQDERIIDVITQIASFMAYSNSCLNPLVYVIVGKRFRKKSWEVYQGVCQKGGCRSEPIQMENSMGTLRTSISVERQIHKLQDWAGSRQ

Experiment [1] has as its system isolated rat uterus. The text has this: A change of one unit of pA2 value represents an order of magnitude change in potency.
On isolated smooth muscles, agonist potency is given as percent of BK potency; antagonist potency is given as pA2, and is underlined. In blood pressure assays, the number is the dose of peptide in micrograms that causes 50% reduction in the effect of BK intraarterially administered as a bolus mixture in a 500 g male rat; Ag indicates unquantitated agonist activity; Ant indicates unquantitated antagonist activity.

Experiment [2] concerns the target B2 receptor (Homo sapiens, UniProt P30411). Put plainly: cell-based.

Regarding `N=C(N)NCCC[C@@H](N)C(=O)N[C@@H](CCCNC(=N)N)C(=O)N1CCC[C@H]1C(=O)N1C[C@H](O)C[C@H]1C(=O)NCC(=O)N[C@@H](Cc1cccs1)C(=O)N[C@@H](CO)C(=O)N[C@@H](C(=O)N1[C@H](C(=O)N[C@@H](CCCNC(=N)N)C(=O)O)C[C@@H]2CCCC[C@@H]21)C1Cc2ccccc2C1` [Compound 7, DArg-Arg-Pro-Hyp-Gly-Thi-Ser-DIglb-Oic-Arg], the “Uterus Activity, antagonist potency given as pA2” value in experiment [1] was 7.8. The molecule also had a Kb in experiment [2] of 0.0162 µM.
